# The supplement of paper PMC12067093, “Discovery and optimisation of a covalent ligand for TRIM25 and its application to targeted protein ubiquitination” (Chemical Science, 2025)
# Amino acid sequences for entries named in this document (tags omitted). A change or cut given only in a name is not applied to a line headed by its entry.
# UniProt Q969Q5: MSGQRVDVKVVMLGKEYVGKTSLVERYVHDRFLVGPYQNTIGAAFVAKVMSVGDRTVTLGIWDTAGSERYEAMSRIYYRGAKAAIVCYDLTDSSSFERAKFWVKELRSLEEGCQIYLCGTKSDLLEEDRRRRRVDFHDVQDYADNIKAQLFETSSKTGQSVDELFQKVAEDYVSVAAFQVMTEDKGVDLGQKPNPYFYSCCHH
# UniProt Q9BXR0: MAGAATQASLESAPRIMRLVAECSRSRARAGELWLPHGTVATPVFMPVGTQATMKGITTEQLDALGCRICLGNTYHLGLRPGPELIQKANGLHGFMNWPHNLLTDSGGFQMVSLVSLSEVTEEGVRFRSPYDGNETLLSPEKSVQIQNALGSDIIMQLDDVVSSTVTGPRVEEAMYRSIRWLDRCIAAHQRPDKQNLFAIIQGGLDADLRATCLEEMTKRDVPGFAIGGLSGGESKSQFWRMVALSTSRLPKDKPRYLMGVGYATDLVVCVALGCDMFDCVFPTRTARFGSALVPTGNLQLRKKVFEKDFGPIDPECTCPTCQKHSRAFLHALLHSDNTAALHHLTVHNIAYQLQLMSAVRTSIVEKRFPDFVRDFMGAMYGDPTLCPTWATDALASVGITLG
# UniProt P49023, whole entry, looked up: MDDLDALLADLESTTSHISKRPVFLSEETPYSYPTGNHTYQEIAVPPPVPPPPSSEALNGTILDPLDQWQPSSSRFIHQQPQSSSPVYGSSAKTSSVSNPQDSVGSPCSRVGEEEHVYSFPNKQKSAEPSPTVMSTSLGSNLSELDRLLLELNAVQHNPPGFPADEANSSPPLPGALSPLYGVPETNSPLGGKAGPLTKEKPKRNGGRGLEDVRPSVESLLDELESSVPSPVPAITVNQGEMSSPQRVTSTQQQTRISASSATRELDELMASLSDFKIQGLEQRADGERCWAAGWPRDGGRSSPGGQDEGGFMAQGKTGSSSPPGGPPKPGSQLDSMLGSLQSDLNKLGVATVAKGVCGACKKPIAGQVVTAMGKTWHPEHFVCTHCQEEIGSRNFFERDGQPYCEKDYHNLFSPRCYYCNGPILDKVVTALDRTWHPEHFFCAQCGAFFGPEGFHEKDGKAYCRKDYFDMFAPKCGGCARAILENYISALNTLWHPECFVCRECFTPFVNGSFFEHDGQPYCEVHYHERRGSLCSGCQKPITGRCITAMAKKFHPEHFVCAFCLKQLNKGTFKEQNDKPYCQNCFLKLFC
# UniProt Q92878: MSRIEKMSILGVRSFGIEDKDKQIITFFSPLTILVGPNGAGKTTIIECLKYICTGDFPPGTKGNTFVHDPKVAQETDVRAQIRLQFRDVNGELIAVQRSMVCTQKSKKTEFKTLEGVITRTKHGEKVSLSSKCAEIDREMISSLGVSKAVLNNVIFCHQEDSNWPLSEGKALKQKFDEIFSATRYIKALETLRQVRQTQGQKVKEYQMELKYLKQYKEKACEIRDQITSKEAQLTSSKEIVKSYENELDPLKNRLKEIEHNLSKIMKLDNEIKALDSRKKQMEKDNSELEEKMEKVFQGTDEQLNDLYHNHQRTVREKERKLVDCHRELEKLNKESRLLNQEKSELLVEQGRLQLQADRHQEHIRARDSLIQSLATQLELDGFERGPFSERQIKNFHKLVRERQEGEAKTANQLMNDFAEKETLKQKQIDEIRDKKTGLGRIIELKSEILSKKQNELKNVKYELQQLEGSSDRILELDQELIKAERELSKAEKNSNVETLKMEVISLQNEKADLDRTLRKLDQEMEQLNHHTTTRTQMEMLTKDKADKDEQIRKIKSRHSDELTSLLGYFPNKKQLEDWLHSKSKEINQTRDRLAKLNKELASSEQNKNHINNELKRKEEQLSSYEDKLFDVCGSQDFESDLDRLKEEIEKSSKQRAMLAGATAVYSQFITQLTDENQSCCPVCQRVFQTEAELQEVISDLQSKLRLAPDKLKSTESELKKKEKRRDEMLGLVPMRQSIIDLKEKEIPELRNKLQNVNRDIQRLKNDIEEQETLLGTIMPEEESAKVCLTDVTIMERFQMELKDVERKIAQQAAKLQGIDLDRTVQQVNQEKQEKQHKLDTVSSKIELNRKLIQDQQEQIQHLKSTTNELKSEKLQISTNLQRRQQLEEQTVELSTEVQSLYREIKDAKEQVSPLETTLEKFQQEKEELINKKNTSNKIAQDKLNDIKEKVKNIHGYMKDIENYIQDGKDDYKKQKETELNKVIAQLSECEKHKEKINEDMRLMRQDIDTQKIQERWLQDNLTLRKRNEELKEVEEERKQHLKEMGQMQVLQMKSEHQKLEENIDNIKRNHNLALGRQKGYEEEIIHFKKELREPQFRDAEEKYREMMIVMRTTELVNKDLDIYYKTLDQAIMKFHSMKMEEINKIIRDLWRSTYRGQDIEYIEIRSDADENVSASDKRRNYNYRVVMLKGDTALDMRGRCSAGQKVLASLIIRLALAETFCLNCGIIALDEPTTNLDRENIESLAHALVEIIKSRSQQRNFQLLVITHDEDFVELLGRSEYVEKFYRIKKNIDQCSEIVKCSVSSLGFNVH
# UniProt Q6WKZ4: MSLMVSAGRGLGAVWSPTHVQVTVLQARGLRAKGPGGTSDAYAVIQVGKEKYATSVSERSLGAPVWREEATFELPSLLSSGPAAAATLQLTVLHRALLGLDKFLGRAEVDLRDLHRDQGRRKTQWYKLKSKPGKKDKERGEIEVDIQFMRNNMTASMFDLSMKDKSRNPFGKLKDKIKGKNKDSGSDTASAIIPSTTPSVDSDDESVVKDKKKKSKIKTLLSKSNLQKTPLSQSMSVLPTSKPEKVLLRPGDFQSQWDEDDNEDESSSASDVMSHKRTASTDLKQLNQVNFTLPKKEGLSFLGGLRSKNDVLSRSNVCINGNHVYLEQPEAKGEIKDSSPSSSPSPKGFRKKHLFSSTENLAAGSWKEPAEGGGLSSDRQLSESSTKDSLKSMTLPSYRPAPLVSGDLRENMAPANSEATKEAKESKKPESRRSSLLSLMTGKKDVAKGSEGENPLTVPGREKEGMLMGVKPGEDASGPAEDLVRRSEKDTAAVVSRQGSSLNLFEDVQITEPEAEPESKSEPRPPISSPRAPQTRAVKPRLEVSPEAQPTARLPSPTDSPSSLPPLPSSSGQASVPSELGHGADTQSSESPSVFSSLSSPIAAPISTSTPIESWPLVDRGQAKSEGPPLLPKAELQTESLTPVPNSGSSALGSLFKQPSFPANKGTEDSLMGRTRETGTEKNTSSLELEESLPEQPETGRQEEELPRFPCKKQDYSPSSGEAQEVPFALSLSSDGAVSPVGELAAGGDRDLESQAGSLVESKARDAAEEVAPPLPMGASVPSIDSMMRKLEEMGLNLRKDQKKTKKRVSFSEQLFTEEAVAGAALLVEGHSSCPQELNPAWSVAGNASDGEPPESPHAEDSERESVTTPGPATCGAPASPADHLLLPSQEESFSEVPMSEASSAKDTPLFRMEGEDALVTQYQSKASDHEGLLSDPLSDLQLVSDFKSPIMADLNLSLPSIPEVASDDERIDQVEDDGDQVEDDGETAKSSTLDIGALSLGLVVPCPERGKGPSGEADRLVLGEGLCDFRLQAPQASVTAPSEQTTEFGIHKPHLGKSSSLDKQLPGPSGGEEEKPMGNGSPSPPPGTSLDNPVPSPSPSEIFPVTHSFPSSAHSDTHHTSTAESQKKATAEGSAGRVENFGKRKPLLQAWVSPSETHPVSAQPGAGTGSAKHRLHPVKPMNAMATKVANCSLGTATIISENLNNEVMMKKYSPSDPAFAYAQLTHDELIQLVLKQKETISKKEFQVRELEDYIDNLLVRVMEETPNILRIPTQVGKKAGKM
# UniProt P51149, whole entry, looked up: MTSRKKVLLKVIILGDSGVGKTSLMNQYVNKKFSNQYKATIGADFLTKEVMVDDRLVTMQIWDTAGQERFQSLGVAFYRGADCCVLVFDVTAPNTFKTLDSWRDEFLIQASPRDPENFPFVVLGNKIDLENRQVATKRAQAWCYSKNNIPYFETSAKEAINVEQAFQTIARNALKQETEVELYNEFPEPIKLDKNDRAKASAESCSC
# UniProt Q9NP72: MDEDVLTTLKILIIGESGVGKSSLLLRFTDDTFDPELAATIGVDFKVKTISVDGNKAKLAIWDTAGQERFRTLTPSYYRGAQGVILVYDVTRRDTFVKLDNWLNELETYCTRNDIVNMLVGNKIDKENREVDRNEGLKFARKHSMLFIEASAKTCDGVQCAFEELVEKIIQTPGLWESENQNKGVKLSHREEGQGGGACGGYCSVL
# UniProt Q9NS91, whole entry: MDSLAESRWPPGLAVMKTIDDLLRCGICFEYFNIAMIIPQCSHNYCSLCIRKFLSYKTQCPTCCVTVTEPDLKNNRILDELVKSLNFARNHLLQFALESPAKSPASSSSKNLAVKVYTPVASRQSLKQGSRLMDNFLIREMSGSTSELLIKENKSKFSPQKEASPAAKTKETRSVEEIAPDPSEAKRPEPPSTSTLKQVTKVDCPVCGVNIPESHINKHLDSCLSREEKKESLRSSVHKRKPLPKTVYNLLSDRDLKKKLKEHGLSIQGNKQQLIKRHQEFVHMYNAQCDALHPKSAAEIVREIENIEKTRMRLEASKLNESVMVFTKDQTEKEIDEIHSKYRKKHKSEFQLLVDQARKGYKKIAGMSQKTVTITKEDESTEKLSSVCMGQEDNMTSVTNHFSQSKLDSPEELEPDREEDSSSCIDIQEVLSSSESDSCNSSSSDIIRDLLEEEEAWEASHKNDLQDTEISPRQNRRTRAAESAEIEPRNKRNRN
# UniProt Q15269: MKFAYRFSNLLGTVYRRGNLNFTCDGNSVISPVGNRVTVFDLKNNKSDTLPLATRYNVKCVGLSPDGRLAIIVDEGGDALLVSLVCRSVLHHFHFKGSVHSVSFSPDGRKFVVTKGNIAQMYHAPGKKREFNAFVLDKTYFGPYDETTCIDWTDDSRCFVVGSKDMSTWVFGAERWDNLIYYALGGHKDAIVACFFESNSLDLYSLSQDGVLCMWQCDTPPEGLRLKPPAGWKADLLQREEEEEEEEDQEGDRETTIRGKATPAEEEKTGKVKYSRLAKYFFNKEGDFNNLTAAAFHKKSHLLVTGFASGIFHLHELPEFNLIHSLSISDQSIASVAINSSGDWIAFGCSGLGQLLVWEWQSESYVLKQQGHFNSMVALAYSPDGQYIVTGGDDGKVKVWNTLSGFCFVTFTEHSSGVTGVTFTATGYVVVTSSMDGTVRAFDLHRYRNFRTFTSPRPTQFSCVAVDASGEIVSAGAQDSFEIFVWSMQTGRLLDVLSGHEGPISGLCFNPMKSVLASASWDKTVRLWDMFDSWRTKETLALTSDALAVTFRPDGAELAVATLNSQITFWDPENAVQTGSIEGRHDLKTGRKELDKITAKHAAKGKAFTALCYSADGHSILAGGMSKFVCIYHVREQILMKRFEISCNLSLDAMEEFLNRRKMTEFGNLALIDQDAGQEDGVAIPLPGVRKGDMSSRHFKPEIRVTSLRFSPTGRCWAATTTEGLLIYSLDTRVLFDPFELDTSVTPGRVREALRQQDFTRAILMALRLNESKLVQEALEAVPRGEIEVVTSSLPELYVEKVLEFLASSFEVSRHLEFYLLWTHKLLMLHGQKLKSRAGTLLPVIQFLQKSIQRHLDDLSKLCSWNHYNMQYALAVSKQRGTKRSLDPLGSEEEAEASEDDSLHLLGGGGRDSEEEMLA
# UniProt Q9UBK7: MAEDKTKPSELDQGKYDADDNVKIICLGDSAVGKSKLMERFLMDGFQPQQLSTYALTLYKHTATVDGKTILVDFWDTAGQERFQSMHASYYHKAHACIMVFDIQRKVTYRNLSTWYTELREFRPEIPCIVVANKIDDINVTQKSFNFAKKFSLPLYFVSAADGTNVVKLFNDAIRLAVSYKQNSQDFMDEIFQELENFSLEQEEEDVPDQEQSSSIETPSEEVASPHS
# UniProt O00391: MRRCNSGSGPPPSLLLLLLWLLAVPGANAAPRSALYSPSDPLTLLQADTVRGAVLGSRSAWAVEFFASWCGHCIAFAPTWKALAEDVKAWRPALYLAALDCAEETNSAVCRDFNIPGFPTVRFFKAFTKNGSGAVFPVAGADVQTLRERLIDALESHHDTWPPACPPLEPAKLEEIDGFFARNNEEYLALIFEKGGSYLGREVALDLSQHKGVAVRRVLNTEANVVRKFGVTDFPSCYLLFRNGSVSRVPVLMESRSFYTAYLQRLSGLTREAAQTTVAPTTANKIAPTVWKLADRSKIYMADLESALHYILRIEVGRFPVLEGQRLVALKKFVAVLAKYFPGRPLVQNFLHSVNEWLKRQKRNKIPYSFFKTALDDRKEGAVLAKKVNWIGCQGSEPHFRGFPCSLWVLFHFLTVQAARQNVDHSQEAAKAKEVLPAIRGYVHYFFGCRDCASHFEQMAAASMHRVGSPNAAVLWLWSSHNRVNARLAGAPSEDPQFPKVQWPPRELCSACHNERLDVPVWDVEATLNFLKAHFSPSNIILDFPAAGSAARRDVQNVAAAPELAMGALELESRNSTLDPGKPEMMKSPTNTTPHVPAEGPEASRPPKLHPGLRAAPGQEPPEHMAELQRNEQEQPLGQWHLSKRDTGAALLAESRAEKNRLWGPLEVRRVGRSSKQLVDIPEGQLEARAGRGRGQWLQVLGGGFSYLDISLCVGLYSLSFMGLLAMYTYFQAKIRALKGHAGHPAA
# The other results are listed elsewhere or left out.
# Compound: Cc1cc(ccc1-c1ccccc1)C(=O)N1CCCN(CC1)C(=O)CCl [compound 10]
# Test: probe-labelled cysteine peptide fold change vs DMSO (competition) (log2 fold change); higher = less target engagement (more negative = stronger competition)
# Conditions: THP-1, incubation time: 4 h
# 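Also: competitive profiling in live THP-1 cells: cysteine peptides tagged with an iodoacetamide desthiobiotin (IA-DTB) probe, intensity after compound treatment relative to DMSO-treated cells.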
Target,probe-labelled cysteine peptide fold change (10 µM),probe-labelled cysteine peptide fold change (50 µM)
RAB3GAP1_Q15042_783_HLLPCVIHAAVLK (UniProt Q15042),0.139,-0.223
RAB35_Q15286_114_WLHEINQNCDDVCR (UniProt Q15286),0.125,-0.186
RAB24_Q969Q5_87_AAIVCYDLTDSSSFER (UniProt Q969Q5),0.23,0.129
RAD21_O60216_585_TGAESISLLELCR (UniProt O60216),0.182,0.331
RAC2_P15153_178_AVLCPQPTR (UniProt P15153),-0.00784,-0.117
QTRT1_Q9BXR0_23_LVAECSR (UniProt Q9BXR0),0.0605,-0.0704
PXN_P49023_384+387_TWHPEHFVCTHCQEEIGSR (UniProt P49023),0.402,-0.119
RAD50_Q92878_990_VIAQLSECEK (UniProt Q92878),0.043,0.0176
RAB3GAP1_Q15042_272_LPFGACEDPISELHLATTWPHLTEGIIVDNDVYSDLDPIQAPHWSVR (UniProt Q15042),0.292,-0.041
PYGB_P11216_496_WLLLCNPGLADTIVEK (UniProt P11216),-0.0209,0.144
RAB11FIP1_Q6WKZ4_1028_LVLGEGLCDFR (UniProt Q6WKZ4),-0.643,-0.406
RAB3GAP1_Q15042_693_AANPGCSLEDFVR (UniProt Q15042),-0.0831,0.0258
PXN_P49023_561_FHPEHFVCAFCLK (UniProt P49023),-0.0845,-0.0794
RAB14_P61106_26_SCLLHQFTEK (UniProt P61106),0.0348,0.0753
RAB7A_P51149_84_GADCCVLVFDVTAPNTFK (UniProt P51149),0.0434,-0.0092
RAB18_Q9NP72_110_LDNWLNELETYCTR (UniProt Q9NP72),0.0295,0.189
PXN_P49023_505+523_ECFTPFVNGSFFEHDGQPYCEVHYHER (UniProt P49023),0.194,-0.262
RAD18_Q9NS91_223_HLDSCLSR (UniProt Q9NS91),-0.0378,-0.0831
RAB3GAP1_Q15042_218_IGCPLTPLPPVSIAIR (UniProt Q15042),0.183,0.0775
RABEPK_Q7Z6M1_29_ATWYTLTVPGDSPCAR (UniProt Q7Z6M1),-0.158,0.067
RAD51B_O15315_27_HQILTCQDFLCLSPLELMK (UniProt O15315),0.457,0.433
RAB4A_P20338_124_MLASQNIVIILCGNKK (UniProt P20338),-0.276,-0.0683
PWP2_Q15269_863_LCSWNHYNMQYALAVSK (UniProt Q15269),-0.0585,0.512
PXN_P49023_361_GVCGACK (UniProt P49023),-0.0164,-0.209
RABIF_P47224_23_AVLCQR (UniProt P47224),0.22,-0.192
RABL2A_Q9UBK7_128_EFRPEIPCIVVANK (UniProt Q9UBK7),0.0246,0.192
QTRT1_Q9BXR0_70_ICLGNTYHLGLRPGPELIQK (UniProt Q9BXR0),0.124,-0.276
QSOX1_O00391_393_KVNWIGCQGSEPHFR (UniProt O00391),-0.035,-0.0766

# Copied from the list:
# RAD50_Q92878_990_VIAQLSECEK (UniProt Q92878) | probe-labelled cysteine peptide fold change (10 µM): 0.043
# RAB18_Q9NP72_110_LDNWLNELETYCTR (UniProt Q9NP72) | probe-labelled cysteine peptide fold change (50 µM): 0.189
